Reference: patent US20050187176

Amino acid sequences for entries named in this document (tags omitted). Residues count along the entry.
UniProt Q9Y6K9, whole entry: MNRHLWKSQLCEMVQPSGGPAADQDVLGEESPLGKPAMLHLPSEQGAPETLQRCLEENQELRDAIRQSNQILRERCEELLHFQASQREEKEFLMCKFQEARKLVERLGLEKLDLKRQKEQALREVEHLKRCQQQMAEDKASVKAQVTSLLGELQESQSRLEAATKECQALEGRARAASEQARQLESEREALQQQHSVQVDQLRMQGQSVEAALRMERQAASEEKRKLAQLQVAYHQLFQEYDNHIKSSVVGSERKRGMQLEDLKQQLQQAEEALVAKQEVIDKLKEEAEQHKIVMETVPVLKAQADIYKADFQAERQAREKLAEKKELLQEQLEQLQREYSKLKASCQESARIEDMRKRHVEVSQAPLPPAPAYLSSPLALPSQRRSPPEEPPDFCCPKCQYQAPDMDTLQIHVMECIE
UniProt P19338, 2-710: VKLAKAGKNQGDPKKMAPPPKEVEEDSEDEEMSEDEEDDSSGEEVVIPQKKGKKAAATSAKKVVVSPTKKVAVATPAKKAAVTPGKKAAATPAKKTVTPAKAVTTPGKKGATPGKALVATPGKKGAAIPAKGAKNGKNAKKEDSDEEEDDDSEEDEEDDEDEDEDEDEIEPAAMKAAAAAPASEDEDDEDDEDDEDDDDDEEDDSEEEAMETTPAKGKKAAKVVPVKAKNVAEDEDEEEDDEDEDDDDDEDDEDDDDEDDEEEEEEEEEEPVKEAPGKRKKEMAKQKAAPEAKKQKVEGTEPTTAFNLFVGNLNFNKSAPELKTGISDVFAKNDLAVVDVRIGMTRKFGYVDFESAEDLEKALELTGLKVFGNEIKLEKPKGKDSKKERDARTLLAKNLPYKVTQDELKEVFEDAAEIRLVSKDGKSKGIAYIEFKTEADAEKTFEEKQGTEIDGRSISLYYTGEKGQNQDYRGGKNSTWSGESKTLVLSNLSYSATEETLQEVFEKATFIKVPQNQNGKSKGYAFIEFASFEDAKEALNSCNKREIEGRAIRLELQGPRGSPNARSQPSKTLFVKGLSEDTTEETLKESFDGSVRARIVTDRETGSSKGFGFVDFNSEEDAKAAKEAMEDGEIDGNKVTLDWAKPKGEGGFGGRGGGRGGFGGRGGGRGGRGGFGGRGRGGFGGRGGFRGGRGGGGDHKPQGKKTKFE

Experiments:
[1] = target: NEMO (IKK-gamma) (UniProt Q9Y6K9); assay: pull-down; settings: 3'-aminoalkyl (C3 or C6), phosphodiester backbone, protein details: endogenous, label: 5'-biotin
[2] = target: nucleolin (UniProt P19338); assay: pull-down; settings: 3'-aminoalkyl (C3 or C6), phosphodiester backbone; 3 uM oligo on HeLa cells 2 h, streptavidin capture, Western blot; protein in cells; protein details: endogenous, oligonucleotide-treated HeLa cells; label: 5'-biotin; single-stranded DNA
[3] = system: NF-kappaB; assay: EMSA; settings: 20 mM HEPES pH 7.9, 50 mM KCl, 1 mM EDTA, room temp; complex reduced in extracts of GRO-treated cells; protein in an extract; label: 32P end-label

GGTGGTGGTGGTTGTGGTGGTGGTGG [GRO26B]: binds ([1]; 3 uM oligo on HeLa cells 2 h, streptavidin capture, Western blot, possibly via nucleolin ternary complex, protein in cells, oligonucleotide-treated HeLa cells, single-stranded …); binds [2].

“TGCAGGAGGTCCGGCTTTTCCCCAACCCCCC (double strand) [NF-kappaB upstream response element (URE)]”: binds [3].

TTTGGTGGTGGTGGTTGTGGTGGTGGTGG [GRO29A]: binds ([1]; streptavidin beads, 30 min 37 C, identified by MALDI-TOF, may be indirect, protein in an extract, HeLa nuclear and S-100 extracts, single-stranded DNA).

For at least one entry, the source does not settle the construct or the ends of the probe. Where cells or extracts were used, other partners may take part.
